These are yes or no findings as the source states them, for the method shown. Binding seen in cells or lysates may run through a third protein. Some results given as binding are weak or reduced against the parent protein; the word gives no strength.
Assays:
[1] = target: eGFP fused C-terminally with the native mMYC PEST domain (aa 202-268) (mouse) (UniProt P01108); test: co-IP
[2] = target: mouse MYC tagged C-terminally with V5 (mMYC-V5), wild type (mouse) (UniProt P01108); test: co-IP

Protein sequences, listed by entry. Tags and fused reporters are not part of them. Lines headed by an entry give the natural chain unless they say otherwise; changes in a name come on top. Chains listed by the source or under a name are the forms on record and can include a tag or linker. Residues count along the entry.
UniProt P01108: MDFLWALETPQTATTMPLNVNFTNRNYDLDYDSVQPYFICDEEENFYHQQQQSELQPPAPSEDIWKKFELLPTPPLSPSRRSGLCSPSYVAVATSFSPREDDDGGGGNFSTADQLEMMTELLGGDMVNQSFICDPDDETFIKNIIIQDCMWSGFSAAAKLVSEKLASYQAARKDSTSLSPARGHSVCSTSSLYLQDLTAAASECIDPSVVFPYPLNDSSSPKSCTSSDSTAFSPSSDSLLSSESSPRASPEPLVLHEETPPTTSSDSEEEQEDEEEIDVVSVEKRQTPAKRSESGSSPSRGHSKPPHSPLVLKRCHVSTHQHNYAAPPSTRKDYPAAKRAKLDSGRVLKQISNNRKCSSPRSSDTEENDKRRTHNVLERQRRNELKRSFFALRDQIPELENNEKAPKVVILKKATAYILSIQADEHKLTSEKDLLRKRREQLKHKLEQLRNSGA
mouse MYC tagged C-terminally with V5 (mMYC-V5), wild type: residues 16-454 of P01108
eGFP fused C-terminally with the native mMYC PEST domain (aa 202-268): residues 217-283 of P01108

binding [1]: binds
binding [2]: binds
Substance: c-Myc epitope-tagged FBW7α (from UniProt Q969H0-1 1-707)
